This is an account of results in patent publication US20260007643A1, “HIGHLY SOLUBLE FORMULATIONS OF HARMINE” (Reconnect Labs AG, priority 2022, published 2026).

This data set in a line: Bitterness rating of formulations in 5 volunteers on a 0-10 numeric rating scale. It is filed as in vivo, Human. The note with it: Part 8, amount corresponding to 20 mg harmine freebase, sublingual area.

Take `COc1ccc2c(c1)[nH]c1c(C)nccc12` [Harmine, 7-methoxy-1-methyl-9H-pyrido[3,4-b]-indole]: the “Bitterness rating, Severity” value is “none to mild”.
The result for Harmine hemifumarate reads “none to mild”.
